Many values rest on one well or one pass, so single values are uncertain.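 All cells are established human bladder cancer lines, one derived from a patient-derived xenograft. A luminescent ATP assay measured viability as percent inhibition relative to vehicle across seven dilutions. The paper rates scores above 59 very active, 30–59 active, 21–29 semi-active, 9–20 low active, below 9 inactive.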
Tests used:
Experiment in all cases: drug sensitivity score DSS3 (score 0-100); higher = more sensitive; extreme values may be limits of the assay
Details in all cases: culture: 3D, ultra-low attachment; treatment time: 5 days
[1] = test system: 5637
[2] = test system: BC8149
[3] = test system: J82
[4] = test system: SCaBER
[5] = test system: SW780
[6] = test system: T-24
[7] = test system: TCCSUP
[8] = test system: UM-UC-12
[9] = test system: UM-UC-14
[10] = test system: UM-UC-15
[11] = test system: UM-UC-17
[12] = test system: UM-UC-18
[13] = test system: UM-UC-1
[14] = test system: UM-UC-3
[15] = test system: UM-UC-5
[16] = test system: UM-UC-6
[17] = test system: UM-UC-9

O=C(O)C(Cc1c[nH]c2ccccc12)N1C(=O)c2ccccc2C1=O (configuration not stated) [RG108] (max dose 10000 nM)
drug sensitivity score DSS3 [1]: 0
drug sensitivity score DSS3 [2]: 2.62
drug sensitivity score DSS3 [3]: 0
drug sensitivity score DSS3 [4]: 0
drug sensitivity score DSS3 [5]: 0
drug sensitivity score DSS3 [6]: 0
drug sensitivity score DSS3 [7]: 0.75
drug sensitivity score DSS3 [8]: 0
drug sensitivity score DSS3 [9]: 0.743
drug sensitivity score DSS3 [10]: 0
drug sensitivity score DSS3 [11]: 0
drug sensitivity score DSS3 [12]: 0
drug sensitivity score DSS3 [13]: 1.53
drug sensitivity score DSS3 [14]: 1.18
drug sensitivity score DSS3 [15]: 0
drug sensitivity score DSS3 [16]: 0
drug sensitivity score DSS3 [17]: 0

COc1ccccc1OCC(O)CN1CCN(CC(=O)Nc2c(C)cccc2C)CC1 (configuration not stated) [Ranolazine] (max dose 10000 nM)
drug sensitivity score DSS3 [1]: 0
drug sensitivity score DSS3 [2]: 0
drug sensitivity score DSS3 [3]: 0
drug sensitivity score DSS3 [4]: 0
drug sensitivity score DSS3 [5]: 0
drug sensitivity score DSS3 [6]: 0
drug sensitivity score DSS3 [7]: 0
drug sensitivity score DSS3 [8]: 0
drug sensitivity score DSS3 [9]: 0
drug sensitivity score DSS3 [10]: 0
drug sensitivity score DSS3 [11]: 0
drug sensitivity score DSS3 [12]: 0
drug sensitivity score DSS3 [13]: 0
drug sensitivity score DSS3 [14]: 0.85
drug sensitivity score DSS3 [15]: 0
drug sensitivity score DSS3 [16]: 0
drug sensitivity score DSS3 [17]: 0

COc1cc(F)c(F)c(Nc2ccc(I)cc2F)c1NS(=O)(=O)C1(C[C@H](O)CO)CC1 [Refametinib (RDEA119, Bay 86-9766)] (max dose 10000 nM)
drug sensitivity score DSS3 [1]: 9
drug sensitivity score DSS3 [2]: 1.79
drug sensitivity score DSS3 [3]: 0
drug sensitivity score DSS3 [4]: 20.2
drug sensitivity score DSS3 [5]: 0.244
drug sensitivity score DSS3 [6]: 4.57
drug sensitivity score DSS3 [7]: 9.29
drug sensitivity score DSS3 [8]: 0
drug sensitivity score DSS3 [9]: 0
drug sensitivity score DSS3 [10]: 10.6
drug sensitivity score DSS3 [11]: 11.4
drug sensitivity score DSS3 [12]: 0
drug sensitivity score DSS3 [13]: 1.21
drug sensitivity score DSS3 [14]: 16.9
drug sensitivity score DSS3 [15]: 7.48
drug sensitivity score DSS3 [16]: 0.138
drug sensitivity score DSS3 [17]: 0

CNC(=O)c1cnn(-c2nc(N)c3ncn([C@@H]4O[C@H](CO)[C@@H](O)[C@H]4O)c3n2)c1 [Regadenoson] (max dose 10000 nM)
drug sensitivity score DSS3 [1]: 0
drug sensitivity score DSS3 [2]: 0
drug sensitivity score DSS3 [3]: 0
drug sensitivity score DSS3 [4]: 0
drug sensitivity score DSS3 [5]: 0
drug sensitivity score DSS3 [6]: 0
drug sensitivity score DSS3 [7]: 0
drug sensitivity score DSS3 [8]: 0
drug sensitivity score DSS3 [9]: 0
drug sensitivity score DSS3 [10]: 17.4
drug sensitivity score DSS3 [11]: 0
drug sensitivity score DSS3 [12]: 0
drug sensitivity score DSS3 [13]: 0
drug sensitivity score DSS3 [14]: 0
drug sensitivity score DSS3 [15]: 0
drug sensitivity score DSS3 [16]: 0
drug sensitivity score DSS3 [17]: 0

CC(C)Cc1ccc([C@@H](C)C(=O)NS(C)(=O)=O)cc1 [Reparixin (Repertaxin)] (max dose 10000 nM)
drug sensitivity score DSS3 [1]: 0
drug sensitivity score DSS3 [2]: 0
drug sensitivity score DSS3 [3]: 0
drug sensitivity score DSS3 [4]: 0
drug sensitivity score DSS3 [5]: 0
drug sensitivity score DSS3 [6]: 0
drug sensitivity score DSS3 [7]: 0
drug sensitivity score DSS3 [8]: 0
drug sensitivity score DSS3 [9]: 0
drug sensitivity score DSS3 [10]: 16
drug sensitivity score DSS3 [11]: 0
drug sensitivity score DSS3 [12]: 0
drug sensitivity score DSS3 [13]: 0
drug sensitivity score DSS3 [14]: 0
drug sensitivity score DSS3 [15]: 0
drug sensitivity score DSS3 [16]: 0
drug sensitivity score DSS3 [17]: 0

CCOCc1nc2c(N)nc3ccccc3c2n1CC(C)(C)O [Resiquimod] (max dose 10000 nM)
drug sensitivity score DSS3 [1]: 0
drug sensitivity score DSS3 [2]: 0
drug sensitivity score DSS3 [3]: 0
drug sensitivity score DSS3 [4]: 0
drug sensitivity score DSS3 [5]: 0
drug sensitivity score DSS3 [6]: 0
drug sensitivity score DSS3 [7]: 0
drug sensitivity score DSS3 [8]: 0
drug sensitivity score DSS3 [9]: 0
drug sensitivity score DSS3 [10]: 0
drug sensitivity score DSS3 [11]: 0
drug sensitivity score DSS3 [12]: 0
drug sensitivity score DSS3 [13]: 0
drug sensitivity score DSS3 [14]: 0
drug sensitivity score DSS3 [15]: 0
drug sensitivity score DSS3 [16]: 0
drug sensitivity score DSS3 [17]: 0

O=C(NC[C@H]1CN(c2ccc(N3CCOCC3=O)cc2)C(=O)O1)c1ccc(Cl)s1 [Rivaroxaban] (max dose 10000 nM)
drug sensitivity score DSS3 [1]: 0
drug sensitivity score DSS3 [2]: 0
drug sensitivity score DSS3 [3]: 0
drug sensitivity score DSS3 [4]: 0
drug sensitivity score DSS3 [5]: 0
drug sensitivity score DSS3 [6]: 0
drug sensitivity score DSS3 [7]: 0
drug sensitivity score DSS3 [8]: 0
drug sensitivity score DSS3 [9]: 0
drug sensitivity score DSS3 [10]: 0.379
drug sensitivity score DSS3 [11]: 0
drug sensitivity score DSS3 [12]: 0
drug sensitivity score DSS3 [13]: 0
drug sensitivity score DSS3 [14]: 0
drug sensitivity score DSS3 [15]: 0
drug sensitivity score DSS3 [16]: 0
drug sensitivity score DSS3 [17]: 0

C/C=C1\NC(=O)[C@H]2CSSCC/C=C/[C@H](CC(=O)N[C@H](C(C)C)C(=O)N2)OC(=O)[C@H](C(C)C)NC1=O [Romidepsin] (max dose 10000 nM)
drug sensitivity score DSS3 [1]: 91.3
drug sensitivity score DSS3 [2]: 90.1
drug sensitivity score DSS3 [3]: 60.6
drug sensitivity score DSS3 [4]: 80.9
drug sensitivity score DSS3 [5]: 43.6
drug sensitivity score DSS3 [6]: 76.5
drug sensitivity score DSS3 [7]: 93.7
drug sensitivity score DSS3 [8]: 85.2
drug sensitivity score DSS3 [9]: 77.8
drug sensitivity score DSS3 [10]: 88.7
drug sensitivity score DSS3 [11]: 95.3
drug sensitivity score DSS3 [12]: 79.3
drug sensitivity score DSS3 [13]: 84
drug sensitivity score DSS3 [14]: 78.1
drug sensitivity score DSS3 [15]: 83
drug sensitivity score DSS3 [16]: 79.2
drug sensitivity score DSS3 [17]: 81.4

CC[C@H](CO)Nc1nc(NCc2ccccc2)c2ncn(C(C)C)c2n1 [Roscovitine (Seliciclib,CYC202)] (max dose 10000 nM)
drug sensitivity score DSS3 [1]: 22.5
drug sensitivity score DSS3 [2]: 18
drug sensitivity score DSS3 [3]: 3.45
drug sensitivity score DSS3 [4]: 6.68
drug sensitivity score DSS3 [5]: 6.56
drug sensitivity score DSS3 [6]: 0
drug sensitivity score DSS3 [7]: 30.9
drug sensitivity score DSS3 [8]: 3.41
drug sensitivity score DSS3 [9]: 8.62
drug sensitivity score DSS3 [10]: 0
drug sensitivity score DSS3 [11]: 8.76
drug sensitivity score DSS3 [12]: 8.54
drug sensitivity score DSS3 [13]: 7.18
drug sensitivity score DSS3 [14]: 2.31
drug sensitivity score DSS3 [15]: 0
drug sensitivity score DSS3 [16]: 0
drug sensitivity score DSS3 [17]: 0

CN(CCOc1ccc(CC2SC(=O)NC2=O)cc1)c1ccccn1 (configuration not stated) [Rosiglitazone] (max dose 10000 nM)
drug sensitivity score DSS3 [1]: 0
drug sensitivity score DSS3 [2]: 0
drug sensitivity score DSS3 [3]: 0
drug sensitivity score DSS3 [4]: 0
drug sensitivity score DSS3 [5]: 0
drug sensitivity score DSS3 [6]: 0
drug sensitivity score DSS3 [7]: 0
drug sensitivity score DSS3 [8]: 0
drug sensitivity score DSS3 [9]: 0
drug sensitivity score DSS3 [10]: 0
drug sensitivity score DSS3 [11]: 0
drug sensitivity score DSS3 [12]: 0
drug sensitivity score DSS3 [13]: 0
drug sensitivity score DSS3 [14]: 0
drug sensitivity score DSS3 [15]: 0
drug sensitivity score DSS3 [16]: 0
drug sensitivity score DSS3 [17]: 0.045

Cc1nn(-c2ccccc2)c(C)c1C=NN1CCN(Cc2ccccc2)CC1 [SANT-1] (max dose 10000 nM)
drug sensitivity score DSS3 [1]: 0.122
drug sensitivity score DSS3 [2]: 1.49
drug sensitivity score DSS3 [3]: 0
drug sensitivity score DSS3 [4]: 0.119
drug sensitivity score DSS3 [5]: 0.161
drug sensitivity score DSS3 [6]: 0
drug sensitivity score DSS3 [7]: 1.4
drug sensitivity score DSS3 [8]: 0
drug sensitivity score DSS3 [9]: 0
drug sensitivity score DSS3 [10]: 19
drug sensitivity score DSS3 [11]: 5.33
drug sensitivity score DSS3 [12]: 0.109
drug sensitivity score DSS3 [13]: 0
drug sensitivity score DSS3 [14]: 0
drug sensitivity score DSS3 [15]: 0
drug sensitivity score DSS3 [16]: 0.0322
drug sensitivity score DSS3 [17]: 0

From the supplement of paper PMC7646827
